PubChem BioAssay AID2551 (National Center for Advancing Translational Sciences (NCATS), 2010)
Out of some 310,000 compounds screened, about 17,000 (5.5%) were called active. This list was built around the results that the source calls inconclusive (neither active nor inactive); the mix of calls is not that of the screen. Calls come from the whole dose curve; as a rule, active = well fitted inhibition curve with a large enough effect; inconclusive = small, poorly fitted or top-dose-only effect, or effect the other way; inactive = no such curve, though single readings can be large or run the other way. Potencies of inconclusive entries are doubtful fits and often do not repeat.

Amino acid sequences for entries named in this document (tags omitted). A change or cut given only in a name is not applied to a line headed by its entry.
UniProt P51450: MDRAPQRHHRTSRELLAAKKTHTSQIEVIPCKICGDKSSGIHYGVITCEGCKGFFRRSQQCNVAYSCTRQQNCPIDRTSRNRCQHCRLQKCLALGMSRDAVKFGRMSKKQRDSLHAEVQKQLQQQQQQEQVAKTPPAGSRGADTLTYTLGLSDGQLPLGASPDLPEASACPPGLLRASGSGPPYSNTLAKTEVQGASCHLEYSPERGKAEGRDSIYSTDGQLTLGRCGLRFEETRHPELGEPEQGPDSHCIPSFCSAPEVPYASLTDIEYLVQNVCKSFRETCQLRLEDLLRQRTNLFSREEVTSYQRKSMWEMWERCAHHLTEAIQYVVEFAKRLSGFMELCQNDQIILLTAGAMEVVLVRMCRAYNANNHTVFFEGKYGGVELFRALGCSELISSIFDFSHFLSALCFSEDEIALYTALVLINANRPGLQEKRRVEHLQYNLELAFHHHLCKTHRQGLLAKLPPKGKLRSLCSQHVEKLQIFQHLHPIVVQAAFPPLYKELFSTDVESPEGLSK

Each compound was assayed against Nuclear receptor ROR-gamma (Mus musculus) (UniProt P51450) (assay: qHTS for inhibitors of ROR gamma transcriptional activity). Settings: Drosophila S2 Gal4-RORgamma UAS-luciferase reporter, 20 h; series mostly up to 53.6 µM.
Method in brief: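 Stably transfected Drosophila Schneider cells are the test system, with ROR gamma fused to Gal4 and luciferase under UAS control; luminescence is read after 20 hr of 700 uM copper sulfate induction at ambient temperature.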
Note: nearly all actives have a fitted effect of over 60% in size.
Potency is the fitted concentration of half-maximal effect.

SMILES | Potency
CC(=O)Oc1c(C)cc(O)c2ccccc12 | inconclusive: 35.5 µM [inhibitor, single point]
CC(C)CCNC(=O)c1ccc2c(Cl)c3c(nc2c1)CCC3 | inconclusive: 8.91 µM [inhibitor, partial curve]
Cc1nc2ccc(NC(=O)NC(=O)c3c(Cl)cccc3Cl)cc2o1 | inactive
O=C(Cc1nc(-c2ccc([N+](=O)[O-])cc2)cs1)Nc1ccccc1 | inactive
COc1ccccc1CNC(=O)C(C)n1nc(C)c2c(C)n(-c3ccccc3)nc2c1=O (stereo unspecified) | inconclusive: 15.8 µM [inhibitor, single point]
COC(=O)c1cc(C(=O)Nc2cccc(C)n2)cc([N+](=O)[O-])c1 | inconclusive: 2 µM [inhibitor, partial curve]
O=C(NCc1ccc2c(c1)OCO2)C1CCN(S(=O)(=O)c2cccs2)CC1 | inactive
O=C(CCl)Nc1cccc(CP(=O)(c2ccccc2)c2ccccc2)c1 | inconclusive: 35.5 µM [inhibitor, single point]
O=C(c1[nH]ncc1-c1ccccc1)C1CO1 (stereo unspecified) | inactive
COc1ccc2nc(/N=C/c3cccc(OC)c3O)sc2c1 | inconclusive: 3.16 µM [inhibitor, single point]
Cc1cccc(N/N=C/c2ccc(C)s2)c1 | inactive
COc1cccc(/C=N/n2c(C3CCCCC3)n[nH]c2=S)c1 | active: 4.47 µM
O=C(Cn1cc([N+](=O)[O-])nc1[N+](=O)[O-])N1CCN(c2ccccc2)CC1 | active: 5.62 µM
COc1ccc(C2c3c(-c4ccccc4O)n[nH]c3C(=O)N2CCc2ccc(OC)c(OC)c2)cc1 (stereo unspecified) | inconclusive: 7.08 µM [inhibitor, partial curve]
O=C(Nc1nnc(C2CC2)o1)c1ccc(S(=O)(=O)N2CCCc3ccccc32)cc1 | active: 0.316 µM
CCCCCOc1ccc(Br)cc1/C(C)=N/NC1=NCCN1 | active: 2.51 µM
Nc1nc(CN2CCC(Cc3ccccc3)CC2)nc(Nc2ccccc2)n1 | active: 10 µM
Nc1nnc(SCC(=O)N2CCc3ccccc32)n1-c1ccccc1 | inconclusive: 15.8 µM [activator, partial curve]
O=C(NC(NC(=S)Nc1ccccc1)C(Cl)(Cl)Cl)c1cccc(Cl)c1 (stereo unspecified) | active: 11.2 µM
COc1ccc(-c2cn[nH]c2-c2ccc(OC)cc2)cc1 | inactive
COC(=O)c1ccc(NC(=O)c2ccc3nccnc3c2)cc1 | inconclusive: 2.82 µM [activator, partial curve, poor fit]
O=C(N/N=C/c1c(Cl)cccc1Cl)c1ccc(F)cc1 | active: 11.2 µM
C/C(=N\NC(=O)c1ccc(Br)cc1)C1C(=O)c2ccccc2C1=O | active: 3.98 µM
O=[N+]([O-])c1ccccc1NCCNc1ncc(C(F)(F)F)cc1Cl | inconclusive: 20 µM [activator, single point]
CSc1ccc(C(=O)C2CCCN(C(=O)c3cc4cc(F)ccc4[nH]3)C2)cc1 (stereo unspecified) | inconclusive: 35.5 µM [activator, single point]
C=CC[C@@H]1/C=C(\C)C[C@H](C)C[C@H](OC)[C@H]2O[C@@](O)(C(=O)C(=O)N3CCCC[C@H]3C(=O)O[C@H](/C(C)=C/[C@@H]3CC[C@@H](O)[C@H](OC)C3)[C@H](C)[C@@H](O)CC1=O)[C@H](C)C[C@@H]2OC | inconclusive: 11.2 µM [activator, partial curve]

A draw from above in order of molecular weight, ascending.
SMILES | Potency
COC(=O)c1cc(C(=O)Nc2cccc(C)n2)cc([N+](=O)[O-])c1 | inconclusive: 2 µM [inhibitor, partial curve]
Cc1nc2ccc(NC(=O)NC(=O)c3c(Cl)cccc3Cl)cc2o1 | inactive
CSc1ccc(C(=O)C2CCCN(C(=O)c3cc4cc(F)ccc4[nH]3)C2)cc1 (stereo unspecified) | inconclusive: 35.5 µM [activator, single point]
COc1ccccc1CNC(=O)C(C)n1nc(C)c2c(C)n(-c3ccccc3)nc2c1=O (stereo unspecified) | inconclusive: 15.8 µM [inhibitor, single point]

The results go on:

SMILES | Potency
COc1ccc(N2CCN(CCNC(=O)Nc3cc(Cl)ccc3Cl)CC2)cc1 | inactive
CCOC(=O)CN1NC2(CCC(C(C)(C)C)CC2)NC1=S (stereo unspecified) | active: 10 µM
CCN(CC)c1ccc(NS(=O)(=O)c2ccc3c(c2)oc(=O)n3C)c(C)c1 | inconclusive: 2.82 µM [inhibitor, single point]
Cc1c(Cl)cccc1NC(=O)CC1Oc2ccccc2NC1=O (stereo unspecified) | inactive
O=C(CN(Cc1ccco1)C(=O)c1ccc(Cl)cc1)Nc1ccc(Cl)c(Cl)c1 | inconclusive: 17.8 µM [activator, single point]
S=c1[nH]c(-c2cccs2)cn1-c1ccccc1 | active: 5.01 µM
Cc1ccc2oc(C(=O)NCCCN3CCOCC3)c(C)c2c1 | inactive
CCC(=O)NCC(c1cccs1)S(=O)(=O)c1ccc(C)cc1 (stereo unspecified) | inactive
Cc1ccc(NC(=S)N2CCN(S(=O)(=O)c3ccccc3)CC2)cc1 | inconclusive: 17.8 µM [inhibitor, single point]
CCOC(=O)c1ccc(NC(=O)NNC(=O)CCc2ccc(OC)cc2)cc1 | inactive
CCOC(=O)C1=C(c2ccccc2)NC(=S)NC1c1ccc(C)c([N+](=O)[O-])c1 (stereo unspecified) | inconclusive: 25.1 µM [inhibitor, single point]
COc1ccc2nc(NC(=O)c3ccccc3F)sc2c1 | inconclusive: 11.2 µM [inhibitor, partial curve, poor fit]
COc1ccccc1/C=N/NC(=S)Nc1cccnc1 | active: 0.708 µM
CC1(C)CC(=O)C/C(=N/NC(=O)COc2ccc(Cl)cc2Cl)C1 | inactive
Cc1sc(NC(=O)CCC(=O)O)c(C(N)=O)c1-c1ccccc1 | inconclusive: 11.2 µM [activator, single point]
C=CCn1c(C)cc(C(=O)Cn2ncc(Cl)c(Cl)c2=O)c1C | inconclusive: 35.5 µM [inhibitor, single point]
CC1=C/C(=N\NC(=O)c2ccc(O)cc2)CC1 | active: 12.6 µM
O=C1CN(c2ccccc2)C(=O)N1 | inactive
Cc1ccc(C)c(-n2c(-c3ccc(Br)cc3)csc2=NC(=O)c2ccccc2F)c1 | inconclusive: 17.8 µM [activator, single point]
CC(=O)N1CCCc2cc(S(=O)(=O)N(C)Cc3ccccc3)ccc21 | inconclusive: 35.5 µM [inhibitor, single point]
CC(C)OC(=O)c1ccc(NC(=O)c2ccccc2)cc1 | inconclusive: 11.2 µM [activator, single point]
O=C1OCCN1/N=C\c1ccc([N+](=O)[O-])o1 | inconclusive: 8.91 µM [inhibitor, partial curve]
CCOc1ccc(C(=O)N2CCn3c2nc2ccccc23)cc1 | inactive
CS(=O)(=O)c1ccc(S(=O)CC(=O)OCc2ccccc2)c([N+](=O)[O-])c1 (stereo unspecified) | active: 4.47 µM
O=C(c1ccc(Cl)s1)N1CCCC(N2CCN(c3ccc(F)cc3)CC2)C1 (stereo unspecified) | inconclusive: 12.6 µM [activator, single point]
N#Cc1c2ccc(OCC(N)=O)cc2n2ccccc12 | inconclusive: 14.1 µM [inhibitor, partial curve]

SMILES | Potency
Cc1c(C(=O)OCC(=O)Nc2ccc(C(=O)N(C)C)cc2)oc2ccccc12 | inactive
Cc1nc2cnc(OCc3ccccc3)nc2n(C)c1=O | inconclusive: 14.1 µM [activator, single point]
O=C(NNC(=S)Nc1ccccc1C(F)(F)F)c1cccnc1 | inactive
O=C(Nc1ccc(Cl)cn1)C1CCN(c2ncnc3c2nc2n3CCCCC2)CC1 | inconclusive: 5.01 µM [activator, single point]
COc1ccc(CCNC(=O)CCSCc2ccccc2F)cc1OC | inactive
O=C(C=C=Nc1ccccc1)C(=O)N=C=Cc1ccccc1 | active: 3.98 µM
CCOC(=O)c1ccc(NC(=O)Cn2cnc3cc(C)c(C)cc32)cc1 | inconclusive: 35.5 µM [inhibitor, single point]
O=C(CN(C(=O)C1CSC(=O)C1)c1cccc(F)c1)NCc1ccc2c(c1)OCO2 (stereo unspecified) | inactive
CCOC(=O)c1cc(CC)sc1N1C(=O)CC(Sc2ccccc2C(=O)O)C1=O (stereo unspecified) | inconclusive: 35.5 µM [inhibitor, single point]
CN(C)S(=O)(=O)N1CCC(Oc2ccc(C(=O)NC3CCCCC3)cc2)CC1 | inconclusive: 11.2 µM [activator, partial curve]
CCOC(=O)C1(Cc2ccccc2)CCN(Cc2nccn2CC)CC1 | active: 7.94 µM
COc1ccc(-c2cn[nH]c2-c2ccc(OCC(=O)NN)cc2O)cc1OC | inconclusive: 20 µM [activator, single point]
CS(=O)(=O)Nc1ccc(C2=NN(C(=O)c3cccc(F)c3)C(c3cccs3)C2)cc1 (stereo unspecified) | inactive
COc1ccc(CCNC(=O)c2cccs2)cc1 | inconclusive: 15.8 µM [activator, partial curve]
CCN1CCN(C(=O)c2cc3cc(F)ccc3[nH]2)CC1 | inactive
N#CC(C#N)=CN=c1ccn(Cc2ccc(Cl)cc2Cl)cc1 | inconclusive: 12.6 µM [activator, partial curve]
NC(=O)N/N=C\c1cc(Br)ccc1O | inactive
COc1ccc(-c2cc(C(=O)N/N=C/c3ccc(OC)c(COCC(F)(F)C(F)F)c3)c3ccccc3n2)c(OC)c1 | inactive
O=Nc1c(-c2c(O)[nH]c3ccccc23)[nH]c2ccccc12 | inconclusive: 10 µM [activator, partial curve]
CN(CC(=O)Nc1ccc(Cl)c(C(F)(F)F)c1)C(=O)CC1Sc2ccccc2NC1=O (stereo unspecified) | inconclusive: 35.5 µM [activator, single point]
CCOC(=O)C1=C(C)NC(C)=C(C(=O)OCC)C1c1ccc(C)o1 | inactive
COc1ccc(C(=O)CSC2=C(C#N)C3(CCCCC3)C(C#N)=C(N)N2)cc1 | inactive
Cc1ccc2nc(-c3ccc(NC(=O)CSc4nccc(=O)[nH]4)cc3)sc2c1 | inconclusive: 3.98 µM [inhibitor, partial curve]
Cc1ncsc1C(=O)N1N=C2/C(=C/c3ccc(N4CCOCC4)cc3)CCCC2C1c1ccc(N2CCOCC2)cc1 (stereo unspecified) | inactive
